Source: paper PMC12654916
No constants are given. Whether binding was seen depends on the method and setting. In cells and extracts the contact can be indirect. A yes stands for co-enrichment or nearness to the bait. Other partners may have been found.

B1: MRG15 (protein, UniProt Q9Y0I1 1-424)
chain: MGEVKPAKVENYSTGTDANTLFVDGERVLCFHGPLIYEAKVLKTKPDATPVEYYIHYAGWSKNWDEWVPENRVLKYNDDNVKRRQELARQCGERSKKDNKKGSAKAKKMEQMRNESRASTPSKDSNTSQSTASSTPTTSAGPGSKSEAGSTGTTTTNSTANSTTSRAHRKSTQSTPSTARPGTPSDKKEDPAAAETTEEEGPVAPKKKRMSEQRPSLTGSDVAEKPLPPTTTPSTPTTEPAPCVESEEAYAAKVEVKIKIPDELKHYLTDDWYAVVREHKLLELPAKVTVQQISEQYLAHKKSVKSTSASKEVAINDVLDGIVEYFNVMLGSQLLYKFERTQYADVMQKHPDTPLSELYGSFHLLRLFVRLGSMLSYSALDQQSMQNLLTHVQDFLKFLVKNSSIFFSMSNFINVDPEYVRNAQ
B2: Negative elongation factor A (NELF-A) (protein, UniProt Q86NP2 1-1251)
chain: MANVRDSDTSLWLHNKLGTSNDSWINGSICSQLNKEVLRNIKECFPDLQTQVKLKLLLSFLHIPRRLVEEWKAELEEVIEVAGLDSELWVSMLAETMKTFPATSSLNTEISDYEDTRPIFIDMVNDLRKLVTKHSDLGMLPLECQYLNKNALISVVGQQPAPVKHFTLKRKPKSAQLRTELLHKSADAQSSLKKASAPTIPLRSRGMPRKMTDTTPLKGIPSRMPTTGFRSATVPGNAAQRPNLSRTPAGRKDGGIKLIEFTEQPLGYAAAKKRKREQQLEEQQKKQEQKQQQAAAAAAAAATAAASNAGDSSPTDAATASGGETPVTPTSANNSFEIKMEPQQLNQSAGSLEEPQDDEMSGKANMECDIETPEYATATLDFAQATSTSVADGQPGKPAVETKLKTPRTPKSAAKLNNNNNNNNNNSFNHTPKRIKQEIEIKSEEIIVPASIKLEKIETSPSTQRVSIQQQPPSLVQRTPHLLIRSSPQKRQNNGATTSAGTTTTTVGNTTIKMEKLDIKPMIRATGVSPSTSAGTTTTLLTPQQLRQAANPLANLPNNISVKITSAKAKAAAAAAATSSGSQTQSQQPQTLQVQQAPQQSHPPLLINSSTPVILASSPSAQRAKALALPSSSTSATTTTTIPSQAIKTMPLSQLKTATNSGPVIISQTIIQPAKRAQQQAGTSSAAAASQQQQQQQSQQQLLHQQIQQQTQQQAQLPQQPQQQQTQYILATPQQQPQQIQQQQQQQQPILPTLTSFSHSRPMPQTTTLYQATTPSGSGQTPTKILLKTSGSSSVVMTPLRQAQPQQATAVVSSNPPPLVATSAAVVSPGQTTLNIQNVQLPNRPVTIQPASQAAQQQHMQAQLQQQQPHPQHTIVANTTATQQPKLSQVLMQPTAAVGTSGVSALNVSPTSGKNKTIILTQKGVILRNIGGDMYQQIPISNVGNMQGLGGTTLMTTTAGPPSLVKTTPSSGVQLQQQQSGKQILPTLIPTSSLGGQHVIVQQQQPTNVIGNSQQQTIIRPVMTNVGGGLTTLPQGLTLIQRPGQQPQLVQVQAAPGSTQRTIITQSNTAAAASQQQPRQQQQQILVQHKPAPTLQQRLVTSTTSGGQGQQGNPNAGLPRTVQVQVQAQQQQQPQQQQATQQQSQQAPQRRGLSLSNEHVHKAHEMFRKANRVSRPDKALILGFMAGLRENPRPNNENVLVIKLGETEEKVQQDNGHTALCLVESHIRLDYNTGEWKTFQNYRLQDQSAAS

Target: HA-tagged SIN3 (Drosophila melanogaster)
Assay: affinity purification with mass spectrometry; HA-tagged SIN3 immunoprecipitated from Drosophila S2 cells treated with PBS or 2-DG; no tag control; TMTpro 16plex with LC-MS/MS (RTS, SPS); five biological replicates

binding | Binder
binds | B1
binds | B2
